Assay results from patent US9993462B2, “Hydantoin derivative-containing pharmaceutical composition” (Chugai Seiyaku Kabushiki Kaisha, priority 2014, dated 2018).
Some of these results come from one statement about several compounds together.

Test: Metabolic stability using human liver microsomes
Type: in vitro ADME

| Compound | metabolic stability against human liver microsomes in comparison to Comparative Examples 1 to 6 (in words) |
| --- | --- |
| Cc1cc(N2C(=O)NC(=O)C2(C)C)cc(C)c1CCS(=O)(=O)N1CCC2(CC1)N=C(c1ccc(F)c(C(F)(F)F)c1)NC2=O [Compound 3, 1-(4-(2-((2-(4-fluoro-3-(trifluoromethyl)phenyl)-4-oxo-1,3,8-triazaspiro[4.5]deca-1-en-8-yl)sulfonyl)ethyl)-3,5-dimethylphenyl)-5,5-dimethylimidazolidine-2,4-dione] | high metabolic stability |
| Cc1cc(N2C(=O)NC(=O)C23CC3)cc(C)c1CCS(=O)(=O)N1CCC2(CC1)N=C(c1ccc(OC(F)(F)F)cc1)NC2=O [Compound 11, 4-(3,5-dimethyl-4-(2-((4-oxo-2-(4-(trifluoromethoxy)phenyl)-1,3,8-triazaspiro[4.5]deca-1-en-8-yl)sulfonyl)ethyl)phenyl)-4,6-diazaspiro[2.4]heptane-5,7-dione] | high metabolic stability |
| Cc1cc(N2C(=O)NC(=O)C2(C)C)cc(C)c1CCS(=O)(=O)N1CCC2(CC1)N=C(c1cccc(Br)c1)NC2=O [Compound 2, 1-(4-(2-((2-(3-bromophenyl)-4-oxo-1,3,8-triazaspiro[4.5]deca-1-en-8-yl)sulfonyl)ethyl)-3,5-dimethylphenyl)-5,5-dimethylimidazolidine-2,4-dione] | high metabolic stability |
| Cc1cc(N2C(=O)NC(=O)C2(C)C)cc(C)c1CCS(=O)(=O)N1CCC2(CC1)N=C(c1ccc3c(c1)OC(F)(F)O3)NC2=O [Compound 5, 1-(4-(2-((2-(2,2-difluorobenzo[d][1,3]dioxol-5-yl)-4-oxo-1,3,8-triazaspiro[4.5]deca-1-en-8-yl)sulfonyl)ethyl)-3,5-dimethylphenyl)-5,5-dimethylimidazolidine-2,4-dione] | high metabolic stability |
| Cc1cc(N2C(=O)NC(=O)C2(C)C)cc(C)c1CCS(=O)(=O)N1CCC2(CC1)N=C(c1ccc(OC(F)(F)F)cc1)NC2=O [Compound 7, 1-(3,5-dimethyl-4-(2-((4-oxo-2-(4-(trifluoromethoxy)phenyl)-1,3,8-triazaspiro[4.5]deca-1-en-8-yl)sulfonyl)ethyl)phenyl)-5,5-dimethylimidazolidine-2,4-dione] | high metabolic stability |
| Cc1cc(N2C(=O)NC(=O)C2(C)C)cc(C)c1CCS(=O)(=O)N1CCC2(CC1)N=C(c1cccc(C(F)(F)F)c1)NC2=O [Compound 6, 1-(3,5-dimethyl-4-(2-((4-oxo-2-(3-(trifluoromethyl)phenyl)-1,3,8-triazaspiro[4.5]deca-1-en-8-yl)sulfonyl)ethyl)phenyl)-5,5-dimethylimidazolidine-2,4-dione] | high metabolic stability |
| Cc1cc(N2C(=O)NC(=O)C23COC3)cc(C)c1CCS(=O)(=O)N1CCC2(CC1)N=C(c1ccc(OC(F)(F)F)cc1)NC2=O [Compound 10, 5-(3,5-dimethyl-4-(2-((4-oxo-2-(4-(trifluoromethoxy)phenyl)-1,3,8-triazaspiro[4.5]deca-1-en-8-yl)sulfonyl)ethyl)phenyl)-2-oxa-5,7-diazaspiro[3.4]octane-6,8-dione] | high metabolic stability |
| Cc1cc(N2C(=O)NC(=O)C2(C)C)cc(C)c1CCS(=O)(=O)N1CCC2(CC1)N=C(c1ccc(OC(F)(F)F)c(F)c1)NC2=O [Compound 4, 1-(4-(2-((2-(3-fluoro-4-(trifluoromethoxy)phenyl)-4-oxo-1,3,8-triazaspiro[4.5]deca-1-en-8-yl)sulfonyl)ethyl)-3,5-dimethylphenyl)-5,5-dimethylimidazolidine-2,4-dione] | high metabolic stability |
| Cc1cc(N2C(=O)NC(=O)C23CCCC3)cc(C)c1CCS(=O)(=O)N1CCC2(CC1)N=C(c1ccc(OC(F)(F)F)cc1)NC2=O [Compound 8, 1-(3,5-dimethyl-4-(2-((4-oxo-2-(4-(trifluoromethoxy)phenyl)-1,3,8-triazaspiro[4.5]deca-1-en-8-yl)sulfonyl)ethyl)phenyl)-1,3-diazaspiro[4.4]nonane-2,4-dione] | high metabolic stability |
| Cc1cc(N2C(=O)NC(=O)C2(C)C)cc(C)c1CCS(=O)(=O)N1CCC2(CC1)N=C(c1ccc(F)c(OC(F)(F)F)c1)NC2=O [Compound 1, 1-(4-(2-((2-(4-fluoro-3-(trifluoromethoxy)phenyl)-4-oxo-1,3,8-triazaspiro[4.5]deca-1-en-8-yl)sulfonyl)ethyl)-3,5-dimethylphenyl)-5,5-dimethylimidazolidine-2,4-dione] | high metabolic stability |
